# Reference: the supplement of paper PMC5770031
# The other results are listed elsewhere or left out. This data set is noisy: repeats of one test often differ as much as different tests do.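 Flies heterozygous for the ATM8 allele over a balancer chromosome carrying normal ATM were mated with each other on treated food. Parents laid eggs for 5–6 days and the young then developed for about 12 days, so both parents and larvae ate the compound. The read-out is the share of all emerged adults that carry two ATM8 copies, compared with 2% DMSO control vials. The paper called compounds neutral at 10–20% such offspring, harmful below 10%, and helpful above 20%.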
# Tested on: Drosophila melanogaster ATM8 (temperature-sensitive ATM allele)
# Assay: fraction of eclosed F1 progeny that are homozygous ATM8 (rescue of developmental lethality); higher = more rescue of ATM8 developmental lethality; extreme values may be limits of the assay
# Conditions: compound concentration applied to food 0.2 mM; 21 °C
row,SMILES,fraction of eclosed F1 progeny that are homozygous ATM8
1,CC(=O)O[C@H]1C[C@@H](OC(C)=O)C(C)(C)C2C[C@@H](O)[C@]3(C)C(CC[C@@]4(C)[C@H](c5ccoc5)OC(=O)[C@H]5O[C@]543)[C@]21C (some centres undefined),0.152
2,OCCOCCN1CCN(C(c2ccccc2)c2ccc(Cl)cc2)CC1 (centres undefined),0.236
3,Cc1ccccc1N1C(=O)c2cc(S(N)(=O)=O)c(Cl)cc2NC1C (centres undefined),0.107
4,Cc1cc(-n2c(=O)[nH]c(=O)n(C)c2=O)ccc1Oc1ccc(SC(F)(F)F)cc1,0.0286
5,CC(C)COC(=O)c1ccc(N)cc1,0.103
6,COc1ccc(C(=O)c2ccc(O)cc2)c(O)c1O,0.186
7,COc1ccc(-c2coc3c(OC)c(OC)cc(O)c3c2=O)cc1,0.151
8,O=C(NC(O)C(Cl)(Cl)Cl)NC(O)C(Cl)(Cl)Cl (centres undefined),0.0625
9,CC(Oc1c(Cl)cccc1Cl)C1=NCCN1 (centres undefined),0
10,CC1=C(CC(=O)O)c2cc(F)ccc2/C1=C\c1ccc([S+](C)[O-])cc1 (centres undefined),0.133
11,CC(=O)NC1CCSC1=O (centres undefined),0.273
12,CCOc1ccc(C(=O)c2ccc(O)c(O)c2O)cc1,0.0727
13,C[C@]12CC[C@@H]3c4ccc(O)cc4CC[C@H]3[C@@H]1C[C@@H](O)[C@@H]2O,0.0222
14,Cc1cccc2c3c(ccc12)C1=C(C(=O)C3=O)[C@@H](C)CO1,0.228
15,Cc1noc(NS(=O)(=O)c2ccc(N)cc2)c1C,0.233
16,CCc1cccc2c3c([nH]c12)C(CC)(CC(=O)O)OCC3 (centres undefined),0.152
17,CCCCC(=O)O[C@]1(C(=O)CO)CC[C@H]2[C@@H]3CCC4=CC(=O)CC[C@]4(C)[C@H]3[C@@H](O)C[C@@]21C,0.0323
18,CC(=O)N[C@@H](Cc1ccccc1)C(=O)O,0.13
19,CO/N=C(\C(=O)N[C@@H]1C(=O)N2C(C(=O)O)=C(C[N+]3(C)CCCC3)CS[C@H]12)c1csc(N)n1,0.154
20,CCOC(=O)[C@H](CCc1ccccc1)N[C@@H](C)C(=O)N1CCC[C@H]1C(=O)O,0.143
21,CC(=O)Oc1ccc2c(c1)CC[C@@H]1[C@@H]2CC[C@@]2(C)[C@H]1C[C@@H](OC(C)=O)[C@@H]2OC(C)=O,0
22,Cn1nnnc1SCC1=C(C(=O)O)N2C(=O)[C@@H](NC(=O)[C@H](OC=O)c3ccccc3)[C@H]2SC1,0.171

row,SMILES,fraction of eclosed F1 progeny that are homozygous ATM8
1,COc1cc(O)c(C)c(O)c1,0.115
2,OCC(O)C(O)C(O)C(O)C(O)CO (centres undefined),0.0349
3,O=C(O)Cc1cnc[nH]1,0.0789
4,COc1cc([C@@H]2c3cc4c(cc3[C@H](OC(C)=O)[C@H]3COC(=O)[C@@H]23)OCO4)cc(OC)c1OC,0.128
5,C[C@]12CC[C@@H]3c4ccc(O)cc4CC[C@H]3[C@@H]1C[C@H](O)[C@@H]2O,0.197
6,CCC1NC(=O)c2cc(S(N)(=O)=O)c(Cl)cc2N1 (centres undefined),0.113
7,CNCC(O)c1ccc(O)cc1 (centres undefined),0.186
8,CC(O)(P(=O)(O)O)P(=O)(O)O,0.341
9,CCc1ccc2c(O)c3c(cc2c1C(=O)OC)C(=O)c1c(O)ccc(O)c1C3=O,0.116
10,O=C(O)COCCN1CCN([C@H](c2ccccc2)c2ccc(Cl)cc2)CC1,0.3
11,O=C1[C@H](CC[C@H](O)c2ccc(F)cc2)[C@@H](c2ccc(O)cc2)N1c1ccc(F)cc1,0.326
12,CC(=O)O[C@H]1C[C@@H](OC(C)=O)C(C)(C)[C@@H]2C[C@@H](OC(C)=O)[C@@]3(C)C4=CC(=O)O[C@@H](c5ccoc5)[C@]4(C)CC[C@@H]3[C@@]12C,0.133
13,O=S(=O)(O)c1cc(I)c(O)c2ncccc12,0.197
14,CN1CCOC(c2ccccc2)c2ccccc2C1 (centres undefined),0.116
15,N=C(N)NCCCCN,0.208
16,CN1CCC(=C2c3ccccc3CCc3sccc32)CC1,0.0984
17,COc1cc2occ(-c3ccccc3)c(=O)c2c(OC)c1C,0.0323
18,CN[C@@H]1[C@@H](O)[C@@H](O[C@@H]2[C@@H](O)[C@H](O[C@H]3O[C@H]([C@@H](C)O)[C@@H](O)[C@H](O)[C@H]3N)[C@@H](N)C[C@H]2N)OC[C@]1(C)O,0.119
19,CC1(C)CC[C@]2(C(=O)O)CC[C@]3(C)C(=CCC4[C@@]5(C)CC[C@@H](O)C(C)(C)C5CC[C@]43C)C2C1 (some centres undefined),0.122
20,CCN(CC)CCOc1ccc(C(=C(Cl)c2ccccc2)c2ccccc2)cc1,0.075
21,CCCCCOC(=O)Nc1nc(=O)n([C@@H]2O[C@H](C)[C@@H](O)[C@H]2O)cc1F,0.107
22,CCCCNc1ccc(C(=O)OCCN(C)C)cc1,0.15

# Looked up above:
# Under fraction of eclosed F1 progeny that are homozygous ATM8, CN[C@@H]1[C@@H](O)[C@@H](O[C@@H]2[C@@H](O)[C@H](O[C@H]3O[C@H]([C@@H](C)O)[C@@H](O)[C@H](O)[C@H]3N)[C@@H](N)C[C@H]2N)OC[C@]1(C)O reads 0.119
# Under fraction of eclosed F1 progeny that are homozygous ATM8, O=C1[C@H](CC[C@H](O)c2ccc(F)cc2)[C@@H](c2ccc(O)cc2)N1c1ccc(F)cc1 reads 0.326
# Under fraction of eclosed F1 progeny that are homozygous ATM8, COc1cc([C@@H]2c3cc4c(cc3[C@H](OC(C)=O)[C@H]3COC(=O)[C@@H]23)OCO4)cc(OC)c1OC reads 0.128
# Under fraction of eclosed F1 progeny that are homozygous ATM8, N=C(N)NCCCCN reads 0.208
# Under fraction of eclosed F1 progeny that are homozygous ATM8, CN1CCC(=C2c3ccccc3CCc3sccc32)CC1 reads 0.0984
# Under fraction of eclosed F1 progeny that are homozygous ATM8, CN1CCOC(c2ccccc2)c2ccccc2C1 (centres undefined) reads 0.116

# Next part:

row,SMILES,fraction of eclosed F1 progeny that are homozygous ATM8
1,C[C@@H]1CC[C@@]23CCC4(C)[C@@](C=CC5[C@@]6(C)CCC(=O)C(C)(C)C6CC[C@]54C)(OC2=O)C3[C@H]1C (some centres undefined),0
2,NC(=O)NC1NC(=O)NC1=O (centres undefined),0.14
3,CC/C=C\CC1=C(C)CCC1=O,0.111
4,CN(C)CCOC(c1ccc(Cl)cc1)c1ccccn1 (centres undefined),0.0303
5,O=C1CCc2ccc(OCCCCN3CCN(c4cccc(Cl)c4Cl)CC3)cc2N1,0
6,COc1c2ccoc2cc2oc(=O)ccc12,0.105
7,Cc1ccccc1C(OCCN(C)C)c1ccccc1 (centres undefined),0.439
8,O=C1C(O)=C([C@H]2CC[C@H](c3ccc(Cl)cc3)CC2)C(=O)c2ccccc21,0.235
9,CC(C)C[C@H]1C(=O)N2CCC[C@H]2[C@]2(O)O[C@](NC(=O)[C@@H]3C=C4c5cccc6[nH]c(Br)c(c56)C[C@H]4N(C)C3)(C(C)C)C(=O)N12,0.122
10,CN1[C@@H]2CC[C@H]1C[C@@H](OC(=O)C(CO)c1ccccc1)C2 (some centres undefined),0.0889
11,COC(=O)C1=C(C)NC(C)=C(C(=O)OCCN(C)Cc2ccccc2)C1c1cccc([N+](=O)[O-])c1 (centres undefined),0.25
12,CC(C)=CCc1c2c(c3occ(-c4ccc(O)cc4)c(=O)c3c1O)C=CC(C)(C)O2,0.093
13,CN1CCN(c2c(F)cc3c(=O)c(C(=O)O)cn4c3c2SCC4)CC1,0.0833
14,COC(=O)C1=C(C)NC(C)=C(C(=O)OCC(C)C)C1c1ccccc1[N+](=O)[O-] (centres undefined),0.0426
15,O=c1cc(-c2ccc(O)cc2)oc2cc(O)ccc12,0.125
16,O=C(O)c1cccnc1C(=O)O,0.0323
17,CC(=O)Nc1ccc(C(=O)O)cc1,0.135
18,O=C(O)c1ccccc1,0.0488
19,CC(C)(C)CC(=O)OCC(=O)[C@@]1(O)CC[C@H]2[C@@H]3CCC4=CC(=O)C=C[C@]4(C)[C@H]3[C@@H](O)C[C@@]21C,0.087
20,CN1CCC[C@@H]1CCO[C@](C)(c1ccccc1)c1ccc(Cl)cc1,0.119
